Construct, isoform or probe ends are uncertain for at least one entry.
What was measured:
[1] = molecular target: T1, OsdR~P (phosphorylated with acetyl phosphate) (Streptomyces coelicolor) (UniProt Q9RI42); assay: EMSA; conditions: EMSA with 32P-labeled probes, 20 fmol DNA (50-mers), AcP phosphorylation, temperature not given (cited method)
T1 sequence: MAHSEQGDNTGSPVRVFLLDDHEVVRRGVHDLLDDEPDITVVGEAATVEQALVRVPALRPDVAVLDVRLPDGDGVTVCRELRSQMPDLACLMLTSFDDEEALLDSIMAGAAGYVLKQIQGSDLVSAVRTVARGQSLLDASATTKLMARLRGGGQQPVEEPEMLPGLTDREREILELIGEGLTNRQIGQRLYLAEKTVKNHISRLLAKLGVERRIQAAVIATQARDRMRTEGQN

[2] = molecular target: T1, OsdR~P (phosphorylated with acetyl phosphate) (Streptomyces coelicolor); assay: competition with a labelled probe; conditions: unlabeled wt competitor, 10 uM protein, 20 fmol labeled wt probe, EMSA with 32P-labeled probes, 20 fmol DNA (50-mers), AcP phosphorylation, temperature not given (cited method), recombinant protein, protein details: His6, label: 32P
[3] = most probes fully bound at 1 uM OsdR~P, recombinant protein, protein details: His6, label: 32P, probe letters rebuilt from the primers and the genome
[4] = AcP-phosphorylated, uM OsdR, recombinant …, protein details: His6, label: 32P, probe letters rebuilt from the primers and the genome
[5] = AcP-phosphorylated, stronger than devR, uM OsdR, recombinant protein, protein details: His6, label: 32P, probe letters rebuilt from the primers and the genome

“GTCAGGATCCACCACTTCGTGGTCGTCCAGGAGGAAGACCCTGACCGGGCTTCCCGTGTTGTCGCCCTGCTCGCTGTGCGCCATCGGATGCTCCTCGCGATGTCTCGGCCCGTGTCGGAATCCTTTCTTCCCAGGATGGCCGAGGTCCAGGGCCGGTCGGCCCCGTTTCGCCCGCGTCAGTGGGCCATGAGGCCGTGCTCGCGGAACCGGACCCGTACGCGGTCCACCAGCGTCCTGTCCGGGACCGGGGTGTCACGCAGCGGGAAGGGGACGCCCAGGGCGTCGTACTTGGCGGGAATTCTGAC (double strand) [osdR (SCO0204) promoter]”: binds [1, 3].

“CCCATCACCCTGCGGGCAGGGACGGTCGGCCCCGTCCCGGGACCACAGGC (double strand) [uspA (SCO0200) 50-mer wt]”: binds [2]; binds ([1]; AcP-phosphorylated, uM OsdR, recombinant …, protein details: His6, label: 32P).

“GTCAGAATTCTGCCGTCGTGCCTGCATCATGGATCCCCCCAGGTTGGTGGCAACTGATGTCTCTACGACGCGCGGAGGGGCGCGCACGACGGCGCGGAACGGTTCCGAAGAGATCACGGTCCGGACTCGCGGCCGGACGGGGCGGCGGACGGGGCGCCGAGCGGGCGCCGGACGGGCGCGGGGCGGACGCGCGGGTGCACGGGTCGTACGCGTACGGGCCGTACGCGTACGGGTCGCGCGGGACCTGCGGGTCGGGGCCGGGGCCGTCCGGCCCCGGGGCGGTGTCGGTGGCGTCTGAGACGCTGGGGCCATGAGCGCAAGTGAGACCCCGGCGGGCGAGTTCCCACCGGAACAGGAACCCGGACACTGCAGTGAC (double strand) [SCO6040-SCO6041 intergenic region]”: binds [1, 3].

“GTCAGAATTCCGTGTGCTCCAGCTCGGCCAGGGCGTTGCGCACCAGGGCACGCGCCACCGGCACCGCCGCGGCGGAGTGCGGCAGTGCGATGCGCCAGGAGGCGGGTGCGGGGAAGTGATCGTGCACGGCAGGTCCGTTTCGTGGAGCAGGGGAGTCCTGTCCTGCTTTCAACCTTATGAATGGTACGGCGCCGCCCGGCAGAGCCGTTCGACGGGCACCCTCCGGGACCTTCGGCCCTCGACACGGACGGCATATCGCGCACCCGTGACGACAGTCACAGAAGGGTGATAACTTCGAGTGTCATGAGTCCTTTCACCGGCTCCGCCGCCCCCACCCCCGAGTGGCGGCACCTGGATCCTGAC (double strand) [SCO5978-SCO5979 intergenic region]”: binds [1, 3].

“GTCAGCGCGGTTGTCGCGGAGGTGGACAATGGTGTGGTGCTGCGGCACGCATTCGAGGAGGCCAGGCTGCGCGGAGTTCCGCTGCGGGCCGTGGCTGTCCACGCTGCTGAAACACCCGATGACGTCGAACAGGGCAGCCGGTTGGCGCATGTACACCTGAGCCGTCGGCTCGCCCACTGGACCCGGCTCTACCCCGAGGTGCGGGTGGATCGGGCCATCGCCGGCGGCAGTGCGTGCCGTCATCTGGCCGCCAACGCAAAGCCGGGTCAGCTGTTCGTCGCGGACTCACACTCCGCGCACGAATTGTGCGGTGCATACCAGCCCGGATGCGCCGTACTTACGGTACGCAGTGCCAACTTGTAGGGAGCGGATCTTGGGAGTGGTGCCCTGGTGGTAAAGGTC (double strand) [devR promoter]”: binds ([1]; uM OsdR, recombinant protein, protein details: His6, label: 32P, probe letters rebuilt from the primers and the genome).

“GCCGACGACGAAAACGCCGACCTGCCAGCTCAGGTGCAGCGCACGACGCGCCTTGACGAATTCCGGCGCCCGCGAACCGAGCGCCCGCTCGGCCGTGGCCTCGTCCGTCCCCGTACGGTCTGCCGCCACGGCTGCCTCGCCGGGCTTGTTACTCCCCGTGTTCATACGGCCAAACACTACCGGAGCGAAACCTGTCACCGGAATGGGCGTACGACTCGAACGGTCCATCGGCCGGAAGAGTTACGTAAACACACGCAAAACACTCAGAGGGGTTTACAACGGCACCGTAGGTGGCATGTCGATTTCGCCGACGTGCGAATCCCCGAGCGCACACTGAGCGAAAGGCCCTGGCGCTTATGAACACCACGGTCAGCTGCGAGCTGCACCTGCGCCTCGTTGTGTCGAGCGAGTCCTCCCTGCCTGTCCCCGCAGGCCTGCGGTACGACACGGCCGA (double strand) [ssgB (SCO1541) promoter]”: binds [1, 4].

“AGGTCGACAGGCCCACCAGGGACCCGCCGACGACCAGGACCGGGACGCGGTGGGTCCGGTCGCCCCCGGGGGCGGCGCCGCCGGACCGGTCGGCTCTTTCGTTCATGATTCGTCCTCCGTTGTACGACAGGTGTCCGTCAGGGGTTGCGTCGGAAGTGCGTCGGGAGTGCGTCGGACGCGCGTTCAGATGCGCGTCAGGGATGCGTCAGGAGTGCGTCAGGGGTCCGAGAGGGGTCCGACCGAGGTGCGCCGGGGCCTTCATGCATGCCCCGTACGGCCCGTCGGGGCCCGCCACGGCGCAGGCTTCACCCGCTTAACCCTCCTGGTTCGCGGTCCCCGCGGGCACGGCCCACGATCGTGCTTACGCGACCGTCGCACCCCGCCGGCCTGGCGGGCGCCGCCGACGATCGCCCCAGTCCACGAGGATGACCGGAGAAGAGGTGGGCCGGATGACGGTCTCTCCCGTCGTAGCGACGGATG (double strand) [SCO5320-SCO5321 intergenic region (whiE)]”: binds [1, 4].

“GTCAGAATTCTGATCGCGCTGGCCGCTGTCTCGGCCGGTGACGCCCTGGGACTGGGCCGGCTGTGGGCCAGGCTCCCGATCGTCCGCGACCACGCGTGGCTGCGCTGAACACGACCGGTGGGGCGGGCCCGCCCGAGGACCCGTCCCATCACCCTGCGGGCAGGGACGGTCGGCCCCGTCCCGGGACCACAGGCCCCTGCCCCCGTAGACCGCCCGAAGAGACGCTGAGAACAGAACAGAAGACACAGGAGGTGGCCGGAATGGCCCGCACGATCACCGTAGGACTCGACGGCTCGCCGGATCCTGAC (double strand) [uspA (SCO0200) promoter]”: binds [1, 3].

“CTCATCGACCGCCCACAACGCCGCATGCGTTGCCGCCCTTGACCCGTCGATACCAACGACCACTGCCCGAGCTGGCCGAGGATCGCTCATCGCCGTCTCCTTCGCTGGGGCGGATACATCCCGTCGGTTCAGCGGTACGTTACTGGCGGGGACCGCTATCTCCCAGGGGCGTTGGTCCCCACCTGAGGGCCGTTAGTCCTTATCGACCGATGACAGACGCAACCCGTCAGGGCGAGAATGAATCTCACCTATCGCACGGGTGG (double strand) [Rv3134c promoter]”: binds [1, 5].

“GTCAGGATCCCTCGCGAACACCAAGGTCAGGGCGGCCCCGTGGCGTACGCGGCGGGGCTGACAGAACAGGTCACGGCCTGACATGCCGGTGAGTCTAGGACAACGCGTGAGGGCCGCACGGTCCCTCGACCGCACGGCCCTCTTGGTATGTGTCACACCTTCAGGTACTTGCGCAACGCGAAGAACGCGGCCAACGCGGGCATCAGCAGGCTCGTGGCCAGGATGAGCGGCAGCTTCGTGAATTCTGAC (double strand) [SCO2967 promoter]”: binds [1, 3].

“CGGGAAGGGTGGTGGCCATTTGATGCCTCCTAATCGATGGAAACGGATGCCTTTGATCCGACCAGCCCATCGTGGCCAGGGCTAGGGACAGAAGTCCCCGAAGCGCGGGCCATTTGTCCGCGCCCGTCGGTGATCCACTTGGGGACCATTGACCCTGTTGTCTGCCAACCGCCGTTCAGA (double strand) [hspX promoter]”: binds [1, 5].

“GTCAGAATTCCGTGCACCAAGGTGATACCGCTCCCCCGCCGCCGGGCCTCGTGAGCCGCCCAGTGCGCGGCCGCGAGGCTCGCGGGCGACCGGTCGATCCCCACCGCGATGTCGTACTCCATGACGTTTCCCCTGCCTCGTCGATCGGTTTCCGGACGTCCCCGAGCCTCCTTCTCGCCGCGGCGGGGCCGCAGGGGCCGTCCAGCCCTCCTCCGAGCCCTTCGGACCCTGCGGGGCGGGGGGCGGCACCGGGCCGACCGGCCCTCCGGCCGGGACCGCCGGTACCTCGCGCTCAGGAGGCCGGCGTTCGACGCTGGAAGGACCGAGCCCGCGACCGAGGAGCGCAGCGCCATGGCCCGTTACGTGTACGACTTCACCGAGGGCGGCCGTGACATGGCCGGACTTCTCGGTGGATCCTGAC (double strand) [SCO0207-SCO0208 intergenic region]”: binds [1, 3].

Source: article PMC5069765, “OsdR of Streptomyces coelicolor and the Dormancy Regulator DevR of Mycobacterium tuberculosis Control Overlapping Regulons” (mSystems, 2016)
